Read-outs that look alike come from different tables or passages of the source. No constants are given. Whether binding was seen depends on the method and setting. A result given as binding can be weak or reduced; the word gives no strength. For part of these data: Binding seen in cells or lysates may run through a third protein. For part of these data: Where a sequence is shown, tags or fusion partners need not be part of it.
How the values were obtained:
[1] = target: T1, GAL4BD:SRK2E (yeast two-hybrid) (Arabidopsis thaliana) (UniProt Q940H6); experiment: two-hybrid
T1 sequence: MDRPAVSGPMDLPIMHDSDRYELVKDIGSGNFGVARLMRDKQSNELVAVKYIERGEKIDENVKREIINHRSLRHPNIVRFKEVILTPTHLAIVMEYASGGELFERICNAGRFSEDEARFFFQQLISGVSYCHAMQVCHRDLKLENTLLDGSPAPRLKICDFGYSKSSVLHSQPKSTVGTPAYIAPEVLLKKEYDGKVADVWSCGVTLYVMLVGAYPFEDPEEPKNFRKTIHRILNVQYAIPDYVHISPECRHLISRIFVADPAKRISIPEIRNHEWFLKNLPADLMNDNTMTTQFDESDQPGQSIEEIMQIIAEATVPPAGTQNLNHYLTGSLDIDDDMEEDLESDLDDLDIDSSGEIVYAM

Chains of the proteins cited; added tags and fusions are not shown. Lines headed by an entry give the natural chain unless they say otherwise; changes in a name come on top.
UniProt Q9ZQ31: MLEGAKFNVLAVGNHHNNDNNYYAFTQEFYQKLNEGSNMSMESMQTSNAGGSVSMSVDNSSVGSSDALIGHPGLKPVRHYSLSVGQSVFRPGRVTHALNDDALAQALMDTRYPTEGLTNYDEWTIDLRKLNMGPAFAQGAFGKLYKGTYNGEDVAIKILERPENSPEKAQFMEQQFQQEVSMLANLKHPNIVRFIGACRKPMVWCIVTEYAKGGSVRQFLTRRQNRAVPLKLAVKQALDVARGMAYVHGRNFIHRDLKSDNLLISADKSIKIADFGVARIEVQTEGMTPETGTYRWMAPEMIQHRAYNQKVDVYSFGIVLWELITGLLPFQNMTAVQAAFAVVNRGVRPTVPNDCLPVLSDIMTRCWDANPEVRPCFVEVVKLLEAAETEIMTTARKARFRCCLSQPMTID
UniProt Q9FIL6: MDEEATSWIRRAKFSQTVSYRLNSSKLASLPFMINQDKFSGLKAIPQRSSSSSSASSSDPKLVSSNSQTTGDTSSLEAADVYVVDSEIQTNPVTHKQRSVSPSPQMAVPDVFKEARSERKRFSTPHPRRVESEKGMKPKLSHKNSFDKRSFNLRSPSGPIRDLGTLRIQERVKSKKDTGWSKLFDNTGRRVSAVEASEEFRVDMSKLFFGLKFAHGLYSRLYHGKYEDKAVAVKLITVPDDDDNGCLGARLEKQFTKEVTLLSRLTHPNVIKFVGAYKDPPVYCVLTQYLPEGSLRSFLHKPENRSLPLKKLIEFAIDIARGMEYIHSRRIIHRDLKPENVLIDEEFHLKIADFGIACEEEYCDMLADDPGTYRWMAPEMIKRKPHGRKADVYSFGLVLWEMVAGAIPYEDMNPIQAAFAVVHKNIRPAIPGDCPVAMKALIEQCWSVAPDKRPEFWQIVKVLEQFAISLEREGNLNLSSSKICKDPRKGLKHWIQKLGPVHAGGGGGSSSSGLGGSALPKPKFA

[2] = target: T1, GAL4BD:SRK2E (yeast two-hybrid) (Arabidopsis thaliana); experiment: two-hybrid; remark: listed apart in the source
[3] = target: T2, GAL4BD:SRK2D (yeast two-hybrid) (Arabidopsis thaliana) (UniProt Q39192); experiment: two-hybrid
T2 sequence: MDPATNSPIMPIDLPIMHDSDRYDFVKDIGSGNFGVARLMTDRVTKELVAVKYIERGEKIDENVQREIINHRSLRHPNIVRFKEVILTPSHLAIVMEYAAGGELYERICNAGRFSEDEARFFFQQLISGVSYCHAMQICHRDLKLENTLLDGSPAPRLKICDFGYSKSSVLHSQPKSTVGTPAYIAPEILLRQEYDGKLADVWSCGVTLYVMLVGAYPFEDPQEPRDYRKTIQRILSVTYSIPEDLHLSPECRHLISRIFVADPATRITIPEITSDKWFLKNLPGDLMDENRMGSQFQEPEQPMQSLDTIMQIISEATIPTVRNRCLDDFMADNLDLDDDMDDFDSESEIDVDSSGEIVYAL

[4] = target: T3, GAL4BD:SRK2I (yeast two-hybrid) (Arabidopsis thaliana) (UniProt Q39193); experiment: two-hybrid
T3 sequence: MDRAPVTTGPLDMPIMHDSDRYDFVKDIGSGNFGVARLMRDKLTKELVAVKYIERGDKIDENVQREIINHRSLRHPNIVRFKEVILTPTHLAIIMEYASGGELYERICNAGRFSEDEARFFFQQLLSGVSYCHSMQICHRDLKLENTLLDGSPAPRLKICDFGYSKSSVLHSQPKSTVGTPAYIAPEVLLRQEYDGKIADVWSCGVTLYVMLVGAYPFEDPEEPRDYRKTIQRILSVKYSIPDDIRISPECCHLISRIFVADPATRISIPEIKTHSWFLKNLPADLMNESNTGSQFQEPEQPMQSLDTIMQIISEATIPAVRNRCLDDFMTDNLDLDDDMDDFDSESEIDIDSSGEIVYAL

[5] = target: T4, SRK2D fused to nEYFP (BiFC) (Arabidopsis thaliana) (UniProt Q39192); experiment: split reporter
T4 sequence: T2 sequence

[6] = target: T5, SRK2E fused to nEYFP (BiFC) (Arabidopsis thaliana) (UniProt Q940H6); experiment: split reporter
T5 sequence: T1 sequence

[7] = target: T6, SRK2I fused to nEYFP (BiFC) (Arabidopsis thaliana) (UniProt Q39193); experiment: split reporter
T6 sequence: T3 sequence

[8] = target: T7, SRK2D, N-terminal biotinylated (AlphaScreen) (Arabidopsis thaliana) (UniProt Q39192); experiment: AlphaScreen or HTRF
T7 sequence (chain, N-terminal biotinylated): T2 sequence

[9] = target: T8, SRK2E, N-terminal biotinylated (AlphaScreen) (Arabidopsis thaliana) (UniProt Q940H6); experiment: AlphaScreen or HTRF
T8 sequence (chain, N-terminal biotinylated): T1 sequence

[10] = target: T9, SRK2I, N-terminal biotinylated (AlphaScreen) (Arabidopsis thaliana) (UniProt Q39193); experiment: AlphaScreen or HTRF
T9 sequence (chain, N-terminal biotinylated): T3 sequence

Substance | binding [1] | binding [2] | binding [5] | binding [6] | binding [7] | also measured
GAL4AD:Raf36 KD+C (207-525) (yeast two-hybrid) (Arabidopsis thaliana) (domain or fragment) | no binding |  |  |  |  | 
GAL4AD:Raf36 N (amino acid residues 1-206) (yeast two-hybrid) (Arabidopsis thaliana) (domain or fragment) |  | binds weakly |  |  |  | 
GAL4AD:Raf36 full-length protein (yeast two-hybrid) (Arabidopsis thaliana) (enzyme) | binds | binds |  |  |  | binding [3]: binds; binding [4]: binds
Raf22 fused to cEYFP (BiFC) (from UniProt Q9ZQ31) (enzyme) |  |  | binds | binds | binds | 
Raf36 fused to cEYFP (BiFC) (Arabidopsis thaliana) (enzyme) |  |  | binds | binds | binds | 
Raf36, C-terminal FLAG-tagged (AlphaScreen) (from UniProt Q9FIL6) (enzyme) |  |  |  |  |  | binding [8]: binds; binding [9]: binds; binding [10]: binds
